Values joined by “and” are separate entries in the source; they are usually repeats but may differ in a detail not shown here. Equal entries are not always repeated. Screen size: about 580,000 compounds; about 6,100 (1.1%) were called active. The inconclusive results got no clear call from the source; some entries with a clear call stand among them for comparison. The call rests on the fitted dose curve; in most records, active means well fitted inhibition curve with a large enough effect; inconclusive means small, poorly fitted or top-dose-only effect, or another doubt; inactive means no such curve, though single readings can be large or run the other way. Potencies of inconclusive entries are doubtful fits and often do not repeat.
Target: Polyunsaturated fatty acid lipoxygenase ALOX12 (Homo sapiens) (UniProt P18054)
Test: Primary qHTS assay for inhibitors of human arachidonate 12S-lipoxygenase (ALOX12): Round 2
Settings: purified 12hLO, xylenol orange hydroperoxide absorbance; activity change, negative = inhibition: at 108 µM (top of the series) unless noted
Outline: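 Purified human 12hLO at 150 nM in 25 mM Hepes, 0.01% Triton X-100, pH 7.0, preincubated 15 min at room temperature with compound. Reaction started with 40 uM arachidonic acid, 30 min at room temperature. Hydroperoxide measured by Fe-xylenol orange, 573/405 nm absorbance ratio.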
On the % scale 0 is the no-effect control and ±100 the full control effect; potency means the concentration at half of the fitted maximal effect.

The chains behind the UniProt entries cited, without tags or fusion partners. Where a name states a change or a piece, a line headed by the entry shows the natural chain unless it says otherwise.
UniProt P18054: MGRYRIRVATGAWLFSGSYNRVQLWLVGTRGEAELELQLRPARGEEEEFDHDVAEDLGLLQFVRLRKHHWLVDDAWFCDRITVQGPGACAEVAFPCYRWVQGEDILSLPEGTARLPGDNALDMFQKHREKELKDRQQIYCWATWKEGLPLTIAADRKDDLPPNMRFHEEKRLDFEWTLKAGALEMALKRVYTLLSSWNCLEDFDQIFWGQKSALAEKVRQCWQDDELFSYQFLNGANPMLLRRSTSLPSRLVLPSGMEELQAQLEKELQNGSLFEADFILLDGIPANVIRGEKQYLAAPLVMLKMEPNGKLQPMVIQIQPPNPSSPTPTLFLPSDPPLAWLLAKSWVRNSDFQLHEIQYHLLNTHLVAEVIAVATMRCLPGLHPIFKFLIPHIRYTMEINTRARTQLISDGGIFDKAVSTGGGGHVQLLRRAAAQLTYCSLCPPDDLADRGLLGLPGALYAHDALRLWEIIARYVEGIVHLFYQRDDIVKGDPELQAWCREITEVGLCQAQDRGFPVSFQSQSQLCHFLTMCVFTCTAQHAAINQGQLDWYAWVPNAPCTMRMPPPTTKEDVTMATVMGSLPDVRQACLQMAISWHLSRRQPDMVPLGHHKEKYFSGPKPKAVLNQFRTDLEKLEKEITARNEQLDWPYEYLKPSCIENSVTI

SMILES | Potency | activity change, negative = inhibition
CC(=O)Nc1ccc(-c2nnc(SCC(=O)NCc3ccco3)n2C)cc1 | inactive | 
Cc1ccc(C(=O)N2CCC(C(NC(=O)c3ccccc3C)C(=O)NCC(C)C)CC2)cc1 (stereo not drawn) | inactive | 
COC(=O)CN(C(=S)Nc1ccc(F)cc1)C1CC(=O)N(c2ccccc2)C1=O (stereo not drawn) | inactive | 
Cc1cc(C)nc(Nc2nc(C(N)Cc3ccccc3)cs2)n1 (stereo not drawn) | inactive | 
COc1ccc(CNC(=O)C(=O)NCC(c2cccnc2)N2CCN(c3ccccc3)CC2)cc1 (stereo not drawn) | inactive | 
N#C/C(=C/c1ccccc1C=O)c1nc2ccccc2s1 | inconclusive: 126 µM [inhibitor, single point] | 
CCCN1CCCc2cc(CN(CCCN3CCOCC3)C(=O)Nc3ccc(Cl)c(Cl)c3)ccc21 | inconclusive: 50.1 µM [inhibitor, partial curve, poor fit] | 
O=C(Nc1cccc(O)c1)C1CC(c2cccc(Br)c2)=NO1 (stereo not drawn) | inactive | 
O=C(Cc1ccc(Cl)cc1)NCCc1c[nH]c2ccccc12 | inconclusive: 56.2 µM [inhibitor, partial curve, poor fit] | 
CC(C)CN(C(=O)COC(=O)Cn1cnc2ccccc2c1=O)C1CCS(=O)(=O)C1 (stereo not drawn) | inconclusive: 3.16 µM [inhibitor, full curve, poor fit] | 
Cc1onc(-c2ccccc2)c1C(=O)NNC(=S)NC(=O)c1ccc(F)cc1 | active: 39.8 µM | 
COc1ccccc1C(=O)N1CCN(C(=O)[C@H]2O[C@@H](n3cnc(C(N)=O)n3)[C@H](O)[C@@H]2O)CC1 | inactive | 
Fc1ccc(CNC(=S)NCCc2ccc(Cl)cc2)cc1 | inconclusive: 44.7 µM [inhibitor, partial curve, poor fit] | 
Cc1ccc(NC(=O)CCC(=O)N/N=C/c2ccc([N+](=O)[O-])o2)cc1C | inactive | 
CCn1c(SCc2ccccc2F)nnc1-c1ccncc1 |  | inconclusive: -31.6% [inhibitor]
CCOC(=O)/C(=C\C=C1/Sc2ccccc2N1CC)C(C)=O | inconclusive: 44.7 µM [inhibitor, partial curve, poor fit] | 
COc1cc(NC(=O)C2CCCCC2)c(OC)cc1NC(=O)c1ccccc1 | inconclusive: 100 µM [inhibitor, single point] | 
COc1cccc(CNC(=O)c2ccc3c(c2)sc2nc(-c4cccc(OC)c4)cn23)c1 | inconclusive: 31.6 µM [inhibitor, partial curve, poor fit] | 
COCCn1ccc2c(OCC(=O)Nc3cccc(C(F)(F)F)c3)cccc2c1=O | inconclusive: 126 µM [inhibitor, partial curve, poor fit] and inconclusive: 178 nM [inhibitor, full curve, poor fit] | 
CC1CC(C)CN(C(=O)c2cccc3c2-c2ccccc2C3=O)C1 (stereo not drawn) | inactive | 
COCCn1c(SCC(=O)c2ccc(Cl)s2)nnc1-c1ccncc1 | inconclusive: 35.5 µM [inhibitor, partial curve, poor fit] | 
CCCCCCn1c(CN2CCN(c3ccccc3)CC2)nc2c1c(=O)n(C)c(=O)n2C | inactive | 
CC(C)NC(=S)NC(c1ccccc1)(c1ccccc1)c1ccccc1 | active: 39.8 µM | 

SMILES | Potency | activity change, negative = inhibition
COc1ccc2c(C)c(CC(=O)Nc3ccccc3F)c(=O)oc2c1C | inconclusive: 3.16 µM [inhibitor, full curve, poor fit] | 
O=C1c2ccccc2NC(c2ccncc2)N1c1ccccn1 (stereo not drawn) | inactive | 
COCCN1CCCN(C(=O)c2ccc(F)c(F)c2)c2ccccc21 | active: 44.7 µM | 
O=C(Cc1ccc2c(c1)OCO2)N1CCc2c(n(CCOc3ccccc3)n(-c3ccccc3)c2=O)C1 | inconclusive: 56.2 µM [inhibitor, full curve, poor fit] | 
Cc1cc(SC(C)C(=O)NC(=O)NC(C)C)nc2ccccc12 (stereo not drawn) | inconclusive: 56.2 µM [inhibitor, partial curve, poor fit] | 
Fc1ccc(CN2CCN(C3CCNC3)CC2)cc1Cl (stereo not drawn) | inconclusive: 5.01 µM [inhibitor, full curve, poor fit] | 
O[C@@H]1C[C@@H](c2nc(-c3cccnc3)no2)N(Cc2cc3ccccc3o2)C1 | inactive | 
CCNC(=O)CNC(=O)c1cc(-c2ccc(F)cc2)nc2ccccc12 | inactive | 
Cc1ccc(Nc2ncnc3c2nc2n3CCCC2)cc1F | inconclusive: 56.2 µM [inhibitor, partial curve, poor fit] | 
CCn1cc(C(=O)NCCc2ccc(OC)cc2)c(=O)c2ccc(C)nc21 | inconclusive: 4.47 µM [inhibitor, full curve, poor fit] | 
O=C(O)c1ccccc1C(=O)NNC(=O)C(c1ccccc1)c1ccccc1 | inactive | 
CCNC(=O)C/C(C)=N/NC(=O)C(C)C | inconclusive: 15.8 µM [inhibitor, partial curve, poor fit] | 
COc1ccc(-c2csc(NC(=O)c3ccc(S(=O)(=O)N4CCc5ccccc5C4)cc3)n2)cc1 | inactive | 
CC(c1cc2ccccc2s1)N(O)C(N)=O (stereo not drawn) | inconclusive: 2.03 µM [inhibitor, full curve] | 
Cc1ccc(C2CC(=O)C3=C(C2)OC(N)=C(C#N)C3c2ccc(Cl)c(Cl)c2)cc1 (stereo not drawn) | active: 39.8 µM | 
Cc1ccc2[nH]c(=O)c(CCC(=O)NCc3ccncc3)cc2c1 | inconclusive: 44.7 µM [inhibitor, partial curve, poor fit] | 
O=C(CSc1nnc(NC(=O)c2ccccc2C(=O)O)s1)Nc1ccccc1Cl | inconclusive: 44.7 µM [inhibitor, partial curve, poor fit] | 
Cc1c(CC(=O)N2CCC(O)(c3ccc(Cl)cc3)CC2)c(=O)oc2cc(O)ccc12 | inconclusive: 126 µM [inhibitor, single point] | 
COc1ccc(Cl)cc1C(=O)N1CCC2(CC1)CC(=O)c1ccccc1O2 | inconclusive: 2.51 µM [inhibitor, full curve, poor fit] | 
COc1ccc(C)cc1NC(=O)Cn1cc(S(=O)(=O)N2CCC(C)CC2)c2ccccc2c1=O | inactive | 
Cc1ccc2c(c1)c1c(n2CC(O)Cn2c(C)nc3ccccc32)C(=O)CCC1 (stereo not drawn) | inactive | 
Cc1cc(C)cc(OCC(=O)N2CCC(c3nc4ccccc4o3)CC2)c1 | inactive | 
O=C(Cc1ccc(Cl)cc1)Nc1ccc2oc(-c3ccc(F)cc3)nc2c1 | inconclusive: 100 µM [inhibitor, partial curve, poor fit] and inconclusive: 50.1 µM [inhibitor, partial curve, poor fit] | 

SMILES | Potency | activity change, negative = inhibition
Cc1ccc2nc(Nc3nc(-c4ccccc4)cc(=O)[nH]3)nc(C)c2c1 | inactive | 
COc1cccc(CNC(=O)[C@@H]2C[C@@H](O)CN2C2CCN(C(=O)C3CCCC3)CC2)c1 | inactive | 
CCCn1cc(C(=O)NC(C)c2cnn(-c3cccc(F)c3)c2C)c(C)n1 (stereo not drawn) | inconclusive: 89.1 µM [inhibitor, partial curve, poor fit] | 
CCOc1ccc(NC(=O)c2c(NCc3cc(OC)c(OC)cc3OC)sc3c2CCCC3)cc1 | inconclusive: 56.2 µM [inhibitor, partial curve, poor fit] | 
Nc1c(Cl)ncnc1N/N=C/c1ccccn1 | inconclusive: 44.7 µM [inhibitor, partial curve, poor fit] | 
CNC(=O)c1ccc(CN(C)C(=O)c2ccc(S(=O)(=O)NC3CC3)cc2)cc1 | inactive | 
O=C(O)CSc1nc(-c2ccccc2)nc2c1oc1ccccc12 | inactive | 
CC(C)(C)C(=O)N1CCC(C(=O)N2CCN(c3ccccc3F)CC2)CC1 | inactive | 
CCN(CC)S(=O)(=O)c1ccc(=O)n(Cc2ncc(-c3ccccc3)o2)c1 | inactive | 
CCn1c(C)[n+](CCOC(C)=O)c2cc(Cl)c(Cl)cc21 | inconclusive: 50.1 µM [inhibitor, partial curve, poor fit] | 
Cc1ccc(NC(NC(=O)c2cccs2)C(Cl)(Cl)Cl)cc1 (stereo not drawn) | inconclusive: 17.8 µM [inhibitor, partial curve, poor fit] | 
O=[N+]([O-])c1cc(/C=N/Nc2nc3ccccc3[nH]2)c(O)cc1O | inconclusive: 50.1 µM [inhibitor, single point] | 
O=C(OCC(=O)c1c[nH]c2ccccc12)c1cccs1 | inconclusive: 89.1 µM [inhibitor, partial curve, poor fit] | 
CC(C)CCNC(=O)C(c1ccc(O)cc1)N(C(=O)C1COc2ccccc2O1)c1cccc(O)c1 (stereo not drawn) | inconclusive: 50.1 µM [inhibitor, partial curve, poor fit] | 
COc1ccc(NC(=O)Cn2c(-c3ccc(F)cc3)cc(C(C)=O)c2C)c(OC)c1 | inconclusive: 112 µM [inhibitor, partial curve, poor fit] | 
CCNc1c(NC(=O)Nc2ccccc2Br)c(=O)oc2ccccc12 | inactive | 
O=C(C1CCC1)N1CCc2nn(Cc3ccccc3)c(=O)n2CC1 | inactive | 
COCCCN1C(=O)C(=O)/C(=C(/O)c2ccc(S(=O)(=O)N3CCCCC3)cc2)C1c1ccc(O)cc1 (stereo not drawn) | inconclusive: 35.5 µM [inhibitor, partial curve, poor fit] | 
CC(=O)Nc1ccc(NC(=O)COc2cccc3ccccc23)cc1 | inconclusive: 100 µM [inhibitor, single point] | 
COc1cccc(CNC(=O)[C@@H]2CCCN2C(=O)[C@H]2CCCCN2)c1 | inactive | 
CC(=O)Nc1ccc(C(=O)CSc2nnnn2C2CCCC2)cc1 | inconclusive: 100 µM [inhibitor, partial curve, poor fit] | 
CC(=O)N/C(=C/c1ccc2c(c1)OCO2)C(=O)N1CCOCC1 | inconclusive: 44.7 µM [inhibitor, partial curve, poor fit] | 

Random excerpt: 2 entries already listed.
SMILES | Potency | activity change, negative = inhibition
O=C(C1CCC1)N1CCc2nn(Cc3ccccc3)c(=O)n2CC1 | inactive | 
CC(=O)N/C(=C/c1ccc2c(c1)OCO2)C(=O)N1CCOCC1 | inconclusive: 44.7 µM [inhibitor, partial curve, poor fit] | 

— PubChem BioAssay AID1671190 (National Center for Advancing Translational Sciences (NCATS), 2021)
